{"sequences": {"note": "Chains of the proteins cited; added tags and fusions are not shown.", "UniProt P35579": "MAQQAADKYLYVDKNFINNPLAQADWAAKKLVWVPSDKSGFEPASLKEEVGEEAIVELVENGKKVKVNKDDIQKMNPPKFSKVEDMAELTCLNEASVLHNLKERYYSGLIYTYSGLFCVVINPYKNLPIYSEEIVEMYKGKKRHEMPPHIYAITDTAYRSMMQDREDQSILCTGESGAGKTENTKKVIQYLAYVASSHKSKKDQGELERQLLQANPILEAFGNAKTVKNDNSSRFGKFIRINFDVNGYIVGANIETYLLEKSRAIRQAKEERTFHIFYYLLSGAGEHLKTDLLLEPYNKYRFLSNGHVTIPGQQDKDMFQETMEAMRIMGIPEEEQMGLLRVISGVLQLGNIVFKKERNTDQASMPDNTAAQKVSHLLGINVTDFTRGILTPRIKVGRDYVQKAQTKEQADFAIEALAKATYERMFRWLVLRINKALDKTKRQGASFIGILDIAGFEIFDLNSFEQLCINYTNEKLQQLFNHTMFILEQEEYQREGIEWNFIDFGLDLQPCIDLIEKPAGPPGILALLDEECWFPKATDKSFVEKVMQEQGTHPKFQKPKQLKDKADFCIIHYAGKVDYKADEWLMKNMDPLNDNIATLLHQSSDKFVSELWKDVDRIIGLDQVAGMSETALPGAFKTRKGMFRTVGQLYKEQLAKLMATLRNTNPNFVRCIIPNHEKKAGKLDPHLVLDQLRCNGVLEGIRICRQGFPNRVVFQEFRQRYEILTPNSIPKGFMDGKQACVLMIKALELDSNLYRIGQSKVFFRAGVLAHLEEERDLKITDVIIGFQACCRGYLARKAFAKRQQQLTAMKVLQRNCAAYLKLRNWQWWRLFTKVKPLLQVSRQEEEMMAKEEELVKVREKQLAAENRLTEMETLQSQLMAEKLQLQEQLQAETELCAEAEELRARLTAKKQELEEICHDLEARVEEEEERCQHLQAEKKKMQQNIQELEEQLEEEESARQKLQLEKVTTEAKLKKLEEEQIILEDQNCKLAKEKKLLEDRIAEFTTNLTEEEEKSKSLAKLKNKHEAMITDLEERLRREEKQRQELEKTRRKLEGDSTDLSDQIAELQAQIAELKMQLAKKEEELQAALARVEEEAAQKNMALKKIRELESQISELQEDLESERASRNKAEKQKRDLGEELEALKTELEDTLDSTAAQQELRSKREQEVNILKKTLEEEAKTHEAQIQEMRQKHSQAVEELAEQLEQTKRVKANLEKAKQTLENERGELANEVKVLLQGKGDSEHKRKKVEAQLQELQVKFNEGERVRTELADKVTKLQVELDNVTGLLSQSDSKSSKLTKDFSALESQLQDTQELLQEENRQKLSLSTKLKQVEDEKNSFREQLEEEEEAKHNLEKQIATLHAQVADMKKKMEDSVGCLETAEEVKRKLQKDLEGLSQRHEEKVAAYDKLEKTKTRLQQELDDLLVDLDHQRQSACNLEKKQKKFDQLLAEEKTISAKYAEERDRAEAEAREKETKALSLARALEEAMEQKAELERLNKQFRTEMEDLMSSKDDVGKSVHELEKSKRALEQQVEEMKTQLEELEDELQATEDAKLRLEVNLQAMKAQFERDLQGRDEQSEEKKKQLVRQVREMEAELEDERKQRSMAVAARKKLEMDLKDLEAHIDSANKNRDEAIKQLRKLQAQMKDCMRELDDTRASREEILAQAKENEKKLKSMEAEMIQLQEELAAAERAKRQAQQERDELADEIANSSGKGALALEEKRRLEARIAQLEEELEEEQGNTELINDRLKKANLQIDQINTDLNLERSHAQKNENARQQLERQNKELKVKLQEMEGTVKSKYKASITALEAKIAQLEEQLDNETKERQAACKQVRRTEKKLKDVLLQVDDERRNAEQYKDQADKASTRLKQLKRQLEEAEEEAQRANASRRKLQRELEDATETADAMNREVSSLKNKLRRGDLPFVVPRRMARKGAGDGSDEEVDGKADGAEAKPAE", "UniProt Q93009": "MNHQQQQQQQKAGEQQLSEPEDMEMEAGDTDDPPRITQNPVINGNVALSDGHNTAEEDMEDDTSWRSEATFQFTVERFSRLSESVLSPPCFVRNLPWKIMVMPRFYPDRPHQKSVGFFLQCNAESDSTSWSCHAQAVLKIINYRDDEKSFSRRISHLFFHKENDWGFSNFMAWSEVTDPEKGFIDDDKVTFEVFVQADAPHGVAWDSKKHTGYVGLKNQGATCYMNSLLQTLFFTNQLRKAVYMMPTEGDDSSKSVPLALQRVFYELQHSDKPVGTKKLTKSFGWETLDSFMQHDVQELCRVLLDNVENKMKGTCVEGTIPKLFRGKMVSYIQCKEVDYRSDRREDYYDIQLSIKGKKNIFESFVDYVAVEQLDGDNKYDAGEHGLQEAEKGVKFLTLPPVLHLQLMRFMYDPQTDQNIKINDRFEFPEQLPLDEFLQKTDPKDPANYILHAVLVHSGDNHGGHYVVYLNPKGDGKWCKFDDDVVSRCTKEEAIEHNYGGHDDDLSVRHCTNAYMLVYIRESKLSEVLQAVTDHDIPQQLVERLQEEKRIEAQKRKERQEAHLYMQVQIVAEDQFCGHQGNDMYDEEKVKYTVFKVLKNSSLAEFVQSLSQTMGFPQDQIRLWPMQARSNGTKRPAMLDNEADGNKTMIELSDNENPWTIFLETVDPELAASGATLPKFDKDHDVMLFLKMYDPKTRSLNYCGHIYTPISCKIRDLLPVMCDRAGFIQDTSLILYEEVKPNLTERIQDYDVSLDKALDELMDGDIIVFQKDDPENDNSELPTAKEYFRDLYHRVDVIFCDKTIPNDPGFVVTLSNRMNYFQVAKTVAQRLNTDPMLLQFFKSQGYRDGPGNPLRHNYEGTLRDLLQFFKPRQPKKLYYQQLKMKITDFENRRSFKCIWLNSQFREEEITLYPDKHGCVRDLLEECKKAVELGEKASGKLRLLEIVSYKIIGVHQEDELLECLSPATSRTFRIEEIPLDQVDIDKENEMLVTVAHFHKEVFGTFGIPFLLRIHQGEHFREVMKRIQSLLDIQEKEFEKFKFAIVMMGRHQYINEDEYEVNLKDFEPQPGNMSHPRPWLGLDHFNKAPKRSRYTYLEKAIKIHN", "UniProt P01106": "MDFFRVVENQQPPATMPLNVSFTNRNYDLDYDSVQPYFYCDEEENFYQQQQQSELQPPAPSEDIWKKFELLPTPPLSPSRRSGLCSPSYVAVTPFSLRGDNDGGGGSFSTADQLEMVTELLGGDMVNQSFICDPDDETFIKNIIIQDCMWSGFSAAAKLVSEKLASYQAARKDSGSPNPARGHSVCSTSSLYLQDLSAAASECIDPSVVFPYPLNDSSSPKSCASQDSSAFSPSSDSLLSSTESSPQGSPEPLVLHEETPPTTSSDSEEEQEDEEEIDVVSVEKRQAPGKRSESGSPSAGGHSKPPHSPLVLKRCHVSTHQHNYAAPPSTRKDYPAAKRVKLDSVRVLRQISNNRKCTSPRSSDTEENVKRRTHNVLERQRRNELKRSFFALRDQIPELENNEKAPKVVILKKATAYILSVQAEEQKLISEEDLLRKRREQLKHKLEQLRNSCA", "UniProt P35222": "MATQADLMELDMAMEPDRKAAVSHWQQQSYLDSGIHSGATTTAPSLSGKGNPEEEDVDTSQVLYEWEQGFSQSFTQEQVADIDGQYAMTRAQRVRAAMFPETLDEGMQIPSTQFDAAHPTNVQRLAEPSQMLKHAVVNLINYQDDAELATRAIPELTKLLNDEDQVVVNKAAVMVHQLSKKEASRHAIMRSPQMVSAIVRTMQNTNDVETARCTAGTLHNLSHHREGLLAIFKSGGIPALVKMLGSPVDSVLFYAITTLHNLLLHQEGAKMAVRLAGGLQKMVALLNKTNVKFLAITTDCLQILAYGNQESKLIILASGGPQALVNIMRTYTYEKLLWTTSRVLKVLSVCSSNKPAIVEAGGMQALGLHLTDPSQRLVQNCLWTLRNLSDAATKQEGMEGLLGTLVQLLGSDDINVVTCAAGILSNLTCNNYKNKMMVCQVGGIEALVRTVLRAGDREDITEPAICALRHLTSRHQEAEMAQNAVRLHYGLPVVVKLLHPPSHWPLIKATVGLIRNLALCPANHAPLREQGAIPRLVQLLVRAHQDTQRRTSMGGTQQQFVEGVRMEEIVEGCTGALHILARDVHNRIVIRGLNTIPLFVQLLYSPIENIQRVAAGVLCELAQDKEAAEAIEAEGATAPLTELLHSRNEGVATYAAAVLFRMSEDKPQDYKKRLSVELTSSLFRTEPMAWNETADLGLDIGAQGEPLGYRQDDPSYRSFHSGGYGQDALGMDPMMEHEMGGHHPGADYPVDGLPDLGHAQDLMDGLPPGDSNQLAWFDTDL"}, "source": "paper PMC8990461", "assay_in_all_cases": "co-IP; Pierce Co-Immunoprecipitation kit; 5 mg protein of HCC cell lysate with 10 µg antibody or IgG (negative control), 4 °C overnight; eluate read by Western blot", "key": {"[1]": {"biological_target": "T1, Enkurin domain of ENKUR (UniProt Q8TC29)", "T1 sequence": "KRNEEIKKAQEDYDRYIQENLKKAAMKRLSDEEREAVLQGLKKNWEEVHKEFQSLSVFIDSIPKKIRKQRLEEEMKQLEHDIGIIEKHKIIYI"}, "[2]": {"biological_target": "T2, ENKUR (Enkurin), overexpressed in HCC cells (UniProt Q8TC29)", "T2 sequence": "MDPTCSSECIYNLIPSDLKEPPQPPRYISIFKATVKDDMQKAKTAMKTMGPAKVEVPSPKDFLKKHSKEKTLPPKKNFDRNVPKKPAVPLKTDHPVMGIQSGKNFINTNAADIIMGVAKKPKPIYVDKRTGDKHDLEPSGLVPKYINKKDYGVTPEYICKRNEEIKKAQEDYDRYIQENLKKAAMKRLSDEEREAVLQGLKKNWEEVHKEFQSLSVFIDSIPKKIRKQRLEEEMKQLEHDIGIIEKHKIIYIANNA"}, "[3]": {"biological_target": "MYH9 (myosin IIA heavy chain) (human (endogenous in LM3 and 7721)) (UniProt P35579)"}}, "note": "These are yes or no findings as the source states them, for the method shown. In cells and extracts the contact can be indirect. Some results given as binding are weak or reduced against the parent protein; the word gives no strength.", "data": [{"substance": "MYH9 (myosin IIA heavy chain) (from UniProt P35579 1-1960)", "values": [{"measurement": "binding", "setting": "[1]", "result": "binds"}, {"measurement": "binding", "setting": "[2]", "result": "binds"}]}, {"substance": "USP7 (from UniProt Q93009 1-1102) (enzyme)", "values": [{"measurement": "binding", "setting": "[3]", "result": "binds"}]}, {"substance": "c-Myc (from UniProt P01106 1-454)", "values": [{"measurement": "binding", "setting": "[3]", "result": "binds"}]}, {"substance": "β-catenin (from UniProt P35222 1-781)", "values": [{"measurement": "binding", "setting": "[1]", "result": "binds"}, {"measurement": "binding", "setting": "[2]", "result": "binds"}]}]}
